The values that follow come from paper PMC7862700.

Protein sequences, listed by entry. Tags and fused reporters are not part of them. Lines headed by an entry give the natural chain unless they say otherwise; changes in a name come on top.
UniProt P32519: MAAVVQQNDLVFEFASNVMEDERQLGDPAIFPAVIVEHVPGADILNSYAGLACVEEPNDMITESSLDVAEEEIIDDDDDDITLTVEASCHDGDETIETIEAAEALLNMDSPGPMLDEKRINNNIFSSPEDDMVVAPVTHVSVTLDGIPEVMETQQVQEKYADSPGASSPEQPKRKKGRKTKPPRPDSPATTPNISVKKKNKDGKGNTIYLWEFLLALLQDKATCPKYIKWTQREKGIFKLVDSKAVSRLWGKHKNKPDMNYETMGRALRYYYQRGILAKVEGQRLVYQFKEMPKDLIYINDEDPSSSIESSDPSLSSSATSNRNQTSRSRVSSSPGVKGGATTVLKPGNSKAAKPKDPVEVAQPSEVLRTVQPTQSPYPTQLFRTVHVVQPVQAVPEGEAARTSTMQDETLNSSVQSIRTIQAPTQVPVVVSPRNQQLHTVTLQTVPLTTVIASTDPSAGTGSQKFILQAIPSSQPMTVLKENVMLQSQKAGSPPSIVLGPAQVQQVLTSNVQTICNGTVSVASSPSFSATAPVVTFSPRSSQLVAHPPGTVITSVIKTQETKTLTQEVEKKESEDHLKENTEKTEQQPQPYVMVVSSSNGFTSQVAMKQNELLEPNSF
UniProt P50549: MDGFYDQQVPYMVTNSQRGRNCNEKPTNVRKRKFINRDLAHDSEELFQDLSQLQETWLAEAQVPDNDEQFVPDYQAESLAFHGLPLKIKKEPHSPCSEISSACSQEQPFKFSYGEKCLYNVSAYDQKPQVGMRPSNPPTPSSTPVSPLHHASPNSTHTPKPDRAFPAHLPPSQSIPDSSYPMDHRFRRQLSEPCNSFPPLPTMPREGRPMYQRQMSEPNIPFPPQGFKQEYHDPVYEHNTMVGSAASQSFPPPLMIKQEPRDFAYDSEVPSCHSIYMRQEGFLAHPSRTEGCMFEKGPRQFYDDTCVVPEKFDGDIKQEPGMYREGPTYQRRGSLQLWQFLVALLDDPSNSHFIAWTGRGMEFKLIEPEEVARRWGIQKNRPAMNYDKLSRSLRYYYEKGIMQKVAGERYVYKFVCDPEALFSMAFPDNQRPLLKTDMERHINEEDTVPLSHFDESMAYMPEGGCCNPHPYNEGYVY

This is a selection; strong and weak results do not stand in their true shares. For part of these data: At the low end of the ranking the order means little. The list shows a part of the results. For part of these data: The exact form of the protein is not confirmed.

Test in all cases: DAPPL (digital affinity profiling via proximity ligation, sequencing)
What all share (conditions): 10 mM Tris-HCl pH 7.5, 50 mM NaCl, 1 mM DTT, 4% glycerol, room temperature, 30 min; GST-TFs on glutathione beads, 16-mer random dsDNA library, 0.1% …; high values mean tight binding; double strand, one strand shown; scale: fold enrichment (6-mer frequency, TF over GST control)

In one experiment the target is T1, ERG (UniProt P11308).
T1 sequence: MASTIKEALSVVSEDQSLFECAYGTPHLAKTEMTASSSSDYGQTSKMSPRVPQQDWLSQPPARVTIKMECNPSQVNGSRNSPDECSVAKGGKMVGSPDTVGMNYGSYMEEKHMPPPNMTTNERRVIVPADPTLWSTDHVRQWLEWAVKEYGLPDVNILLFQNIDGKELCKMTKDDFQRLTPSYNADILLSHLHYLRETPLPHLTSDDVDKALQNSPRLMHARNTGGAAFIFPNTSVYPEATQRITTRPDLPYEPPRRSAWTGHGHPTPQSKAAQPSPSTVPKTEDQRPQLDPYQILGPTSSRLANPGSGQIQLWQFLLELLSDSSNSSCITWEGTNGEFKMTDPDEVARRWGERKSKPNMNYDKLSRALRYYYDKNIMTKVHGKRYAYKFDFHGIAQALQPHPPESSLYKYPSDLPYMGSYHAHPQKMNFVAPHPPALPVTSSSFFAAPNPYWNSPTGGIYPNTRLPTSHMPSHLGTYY

For another experiment, the target named is ELF1 (UniProt P32519).
A further experiment concerns the target T2, ELK4 (UniProt P28324-2).
T2 sequence: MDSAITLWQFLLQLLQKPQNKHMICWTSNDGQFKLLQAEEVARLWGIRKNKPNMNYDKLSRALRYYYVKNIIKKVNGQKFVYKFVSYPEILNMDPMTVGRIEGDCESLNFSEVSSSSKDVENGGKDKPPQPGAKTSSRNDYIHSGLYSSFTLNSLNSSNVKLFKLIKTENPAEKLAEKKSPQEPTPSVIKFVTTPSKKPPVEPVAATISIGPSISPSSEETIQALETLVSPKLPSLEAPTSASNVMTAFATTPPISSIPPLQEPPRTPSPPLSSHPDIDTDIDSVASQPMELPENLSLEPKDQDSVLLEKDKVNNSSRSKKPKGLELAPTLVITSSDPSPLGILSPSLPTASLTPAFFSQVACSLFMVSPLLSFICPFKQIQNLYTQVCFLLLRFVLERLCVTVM

A further experiment concerns the target T3, ETV4 (UniProt P43268).
T3 sequence: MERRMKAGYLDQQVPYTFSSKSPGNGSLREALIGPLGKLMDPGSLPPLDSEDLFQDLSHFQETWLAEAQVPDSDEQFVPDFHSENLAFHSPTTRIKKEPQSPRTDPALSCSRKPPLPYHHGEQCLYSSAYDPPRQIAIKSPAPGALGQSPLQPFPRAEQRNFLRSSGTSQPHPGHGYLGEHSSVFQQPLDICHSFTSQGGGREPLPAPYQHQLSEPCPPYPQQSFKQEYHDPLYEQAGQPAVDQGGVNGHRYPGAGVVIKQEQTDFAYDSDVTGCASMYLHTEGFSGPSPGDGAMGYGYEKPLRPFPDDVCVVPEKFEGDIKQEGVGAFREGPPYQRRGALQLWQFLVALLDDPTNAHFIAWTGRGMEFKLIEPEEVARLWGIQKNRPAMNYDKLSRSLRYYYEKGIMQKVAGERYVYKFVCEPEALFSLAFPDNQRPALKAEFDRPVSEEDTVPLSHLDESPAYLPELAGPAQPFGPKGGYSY

The target of a further experiment is ETV1 (UniProt P50549).
Another experiment deals with T4, ERF (UniProt P50548).
T4 sequence: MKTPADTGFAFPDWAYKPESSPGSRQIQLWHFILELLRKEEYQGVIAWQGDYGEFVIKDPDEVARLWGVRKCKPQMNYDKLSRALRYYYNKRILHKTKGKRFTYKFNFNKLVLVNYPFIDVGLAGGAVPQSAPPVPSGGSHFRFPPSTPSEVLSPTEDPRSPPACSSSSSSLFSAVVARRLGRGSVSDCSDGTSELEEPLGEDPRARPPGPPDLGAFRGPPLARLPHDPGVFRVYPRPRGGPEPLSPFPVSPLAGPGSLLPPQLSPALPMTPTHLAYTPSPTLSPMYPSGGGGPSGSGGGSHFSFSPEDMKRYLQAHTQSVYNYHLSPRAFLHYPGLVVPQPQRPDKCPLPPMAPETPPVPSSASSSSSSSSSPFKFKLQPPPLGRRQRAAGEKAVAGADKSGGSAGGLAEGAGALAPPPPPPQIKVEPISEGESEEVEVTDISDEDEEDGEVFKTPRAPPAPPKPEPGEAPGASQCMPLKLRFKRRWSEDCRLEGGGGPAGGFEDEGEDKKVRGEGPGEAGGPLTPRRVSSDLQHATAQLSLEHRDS

Turning to GTGCCG, the binding signal was found to be 0.941 with ERG; 0.929 in the experiment with ELF1; 0.921 in the experiment with ELK4; 0.895 with ETV4; 0.939 with ETV1; 0.791 in the experiment with ERF.

On to TTGAGA, for which the binding signal worked out at 0.875 in the experiment with ERG; 0.873 in the experiment with ELF1; 0.992 in the experiment with ELK4; 0.815 in the experiment with ETV4; 0.86 with ETV1; 0.924 in the experiment with ERF.

GTGATG: the binding signal in the experiment with ERG was determined as 0.943; with ELF1, 0.993; with ELK4, 1.18; in the experiment with ETV4 it was 0.966; in the experiment with ETV1, 1.03; in the experiment with ERF it was 0.889.

Turning to GCAAAG, the binding signal came to 0.932 with ERG; 0.962 with ELF1; 0.998 with ELK4; 0.913 with ETV4; 0.975 in the experiment with ETV1; 0.971 in the experiment with ERF.

In the case of CTAGGA, the binding signal came out at 0.872 in the experiment with ERG; 0.909 with ELF1; 0.937 with ELK4; 0.884 in the experiment with ETV4; 0.893 with ETV1; 0.87 with ERF.

Consider GTGGTT, for which the binding signal with ERG amounted to 0.904; in the experiment with ELF1 it was 0.859; with ELK4, 0.88; with ETV4, 0.885; with ETV1 it was 0.88; in the experiment with ERF, 0.984.

Regarding ACAGAA, the binding signal with ERG is 0.892; with ELF1, 0.946; with ELK4, 0.957; with ETV4, 0.881; with ETV1, 0.921; in the experiment with ERF it was 0.896.

On to GGCACC, for which the binding signal is 0.842 with ERG; 0.774 with ELF1; 0.858 in the experiment with ELK4; 0.79 with ETV4; 0.785 with ETV1; 0.874 with ERF.

Consider TTAGTC, for which the binding signal with ERG amounted to 0.791; with ELF1, 0.803; with ELK4, 0.698; with ETV4, 0.806; with ETV1, 0.731; with ERF, 0.796.

Take CAAAGT: the binding signal worked out at 0.947 with ERG; 1.03 with ELF1; 0.954 with ELK4; 0.962 with ETV4; 0.969 with ETV1; 0.953 with ERF.

As for GTTTAG, the binding signal was 0.895 with ERG; 0.852 with ELF1; 0.902 in the experiment with ELK4; 0.861 with ETV4; 0.925 with ETV1; 0.974 with ERF.

Regarding CTGGCG, the binding signal in the experiment with ERG was 0.831; with ELF1, 0.839; with ELK4, 0.875; with ETV4, 0.781; with ETV1, 0.849; with ERF, 0.875.

As for AAGCCG, the binding signal with ERG is 0.909; with ELF1, 0.918; with ELK4, 0.958; with ETV4, 0.907; with ETV1, 0.971; with ERF, 0.93.

As for TTGGGA, the binding signal with ERG is 0.923; with ELF1, 0.911; with ELK4 it was 0.896; in the experiment with ETV4, 0.854; in the experiment with ETV1, 0.93; in the experiment with ERF, 0.965.

On to GGTTAA, for which the binding signal was found to be 0.82 in the experiment with ERG; 0.891 in the experiment with ELF1; 0.928 with ELK4; 0.865 in the experiment with ETV4; 0.814 with ETV1; 0.814 with ERF.

For AGGCCC, the binding signal came out at 0.94 with ERG; 0.983 in the experiment with ELF1; 0.937 with ELK4; 0.983 with ETV4; 0.913 with ETV1; 0.964 with ERF.

Take CTAAGG: the binding signal with ERG was found to be 0.893; in the experiment with ELF1, 0.935; in the experiment with ELK4 it was 0.99; in the experiment with ETV4, 0.879; with ETV1, 1.01; in the experiment with ERF, 0.9.

For the sequence CATAGA, the binding signal with ERG is 0.875; with ELF1 it was 0.933; with ELK4 it was 0.933; with ETV4 it was 0.869; with ETV1 it was 0.943; with ERF it was 0.926.

Turning to GAAGGT, the binding signal with ERG stood at 0.845; in the experiment with ELF1 it was 0.892; with ELK4 it was 0.95; with ETV4 it was 0.869; with ETV1, 0.878; in the experiment with ERF it was 0.922.

Take GGTCAC: the binding signal in the experiment with ERG amounted to 1.01; in the experiment with ELF1, 0.975; with ELK4 it was 0.908; with ETV4, 0.987; in the experiment with ETV1, 1.02; with ERF, 0.961.

For GTGACT, the binding signal in the experiment with ERG turned out to be 0.916; with ELF1, 0.909; with ELK4, 0.9; with ETV4, 0.987; with ETV1, 0.946; with ERF it was 0.856.

As for GATTAG, the binding signal in the experiment with ERG stood at 0.856; with ELF1 it was 0.954; with ELK4, 0.923; in the experiment with ETV4 it was 0.83; in the experiment with ETV1, 0.912; in the experiment with ERF, 0.926.

AGGCTA: the binding signal in the experiment with ERG was found to be 0.853; with ELF1, 0.987; with ELK4 it was 0.896; with ETV4, 0.896; with ETV1 it was 0.905; with ERF, 0.887.
